In the test the target is residues 17-124 of Mdm2 (Mdm2*) fused to σ^N-Npu^N (UniProt Q00987). Nature of the test: two-hybrid.

Amino acid sequences for entries named in this document (tags omitted). Residues count along the entry.
UniProt Q00987, residues 17-124: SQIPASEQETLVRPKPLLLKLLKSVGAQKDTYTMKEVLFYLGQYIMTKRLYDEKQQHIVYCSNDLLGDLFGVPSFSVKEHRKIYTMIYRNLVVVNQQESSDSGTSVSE
UniProt Q9BYF1, residues 19-56: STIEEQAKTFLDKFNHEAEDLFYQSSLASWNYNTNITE

Results are given in words; binding and its absence hold for the method and conditions named.

For the substance “peptide based on the N-terminal residues 19-56 of ACE2 (ACE2α1) fused to Npu^C-σ^C (from UniProt Q9BYF1 19-56)”, the binding entry is on record as “no binding”.

These data come from article PMC8566587, “Selection for constrained peptides that bind to a single target protein” (Nature Communications, 2021).
